Test results from patent US11058737B2, “Use of Euycoma longifolia extract in alleviating symptoms and/or conditions associated with hormonal imbalance in females” ([…] BERHAD, priority 2018, dated 2021).

Test: Feed consumption (feed intake) of ovariectomized rats
Assay type: in vivo, Sprague Dawley rats
Details: 10 mg/kg intramuscular once every 4 weeks

SMILES: CCCCCCCCCCC(=O)O[C@H]1CC[C@H]2[C@@H]3CCC4=CC(=O)CC[C@]4(C)[C@H]3CC[C@]12C [Testosterone undecanoate]
- Feed Intake (Basal): 15.4 ± 0.4 g/animal/day
- Feed Intake (Week 01): 18.8 ± 0.0 g/animal/day
- Feed Intake (Week 02): 19.3 ± 0.1 g/animal/day
- Feed Intake (Week 03): 19.4 ± 0.1 g/animal/day
- Feed Intake (Week 04): 19.9 ± 0.1 g/animal/day
- Feed Intake (Week 05): 20.1 ± 0.0 g/animal/day
- Feed Intake (Week 06): 20.1 ± 0.0 g/animal/day
- Feed Intake (Week 07): 20.2 ± 0.0 g/animal/day
- Feed Intake (Week 08): 15.4 ± 0.4 g/animal/day
